Test results taken from PubChem BioAssay AID493014 (National Center for Advancing Translational Sciences (NCATS), 2011).
The other results are listed elsewhere or left out. The main result of the screen is listed elsewhere. These columns were measured beside it and carry no call. Most of these compounds were active or inconclusive in the main read-out, so they are no random draw. Words in brackets tell the shape of the fitted curve; partial curves, single points and poor fits give uncertain potencies. Peptide text beside a SMILES is read from it. * marks the point of attachment. Boc = CC(C)(C)OC(=O)*

Assay: qHTS Assay to Find Inhibitors of Chronic Active B-Cell Receptor Signaling
Settings: ABC-DLBCL IkBa-CBG/CBR reporter, luminescence ratio (green luciferase fused to IkBa over red control in TMD8 lymphoma cells), 4 h
Method in brief: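 TMD8 human ABC-DLBCL cells with doxycycline-inducible IκBα–green luciferase fusion and unfused red luciferase, in 0.5% FBS medium; compounds up to 46 uM, 4 h at 37C. Green/red luminescence ratio, filter-overlap corrected, fitted to concentration-response curves.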

[1] = measured here: CBR red luminescence, cell number
[2] = measured here: IkBa-CBG green luminescence

| SMILES | AC50 [1] | AC50 [2] |
| --- | --- | --- |
| CCOC(=O)NCc1ccc2c(c1)cc(C)n2C | 4.47 µM [rising, full curve, poor fit] |  |
| CC(=O)Nc1ccc(NC(=O)C(C)Oc2ccccc2C(=O)NCc2ccccc2)cc1 (centres undefined) | 13 µM [rising, partial curve, poor fit] |  |
| O=C(Nc1ccc2c(c1)OCO2)c1ccc(Cl)s1 | 23.1 µM [falling, single point] |  |
| C[C@]12CC[C@H]3C(=CCc4cc(O)ccc43)[C@@H]1CCC2=O | 13 µM [rising, partial curve, poor fit] | 20.6 µM [falling, partial curve, poor fit] |
| O=C(COC(=O)c1ccc(S(=O)(=O)C(F)F)cc1)Nc1ccccc1C(=O)NC1CC1 | 2.91 µM [rising, full curve, poor fit] |  |
| Cc1noc(C)c1COc1ccc(C(=O)O)cc1 | 31.6 µM [rising, single point] |  |
| COc1cc(CC(=O)O)c([N+](=O)[O-])cc1OC | 7.08 µM [rising, partial curve, poor fit] |  |
| O=C(Nc1ccncc1)c1ccc2ncsc2c1 | 4.11 µM [falling, partial curve] |  |
| COc1ccccc1N1CCN(S(=O)(=O)c2ccc(Cl)cc2)CC1 | 35.5 µM [falling, single point] |  |
| CCCCCNC(=O)CSC1=N/C(=C\c2ccc(Cl)c(Cl)c2)C(=O)N1CC | 32.6 µM [falling, partial curve, poor fit] |  |
| Cc1c(Cl)cccc1NC(=S)NCC1COc2ccccc2O1 (centres undefined) | 12.6 µM [falling, single point] |  |
| O=C(CNC(=O)c1ccc2c(c1)S(=O)(=O)N=C1CCCCCN12)Nc1ccc(F)c(F)c1 | 0.259 µM [rising, full curve, poor fit] |  |
| O=C(O)c1ccc(N/N=C/c2ccc(-c3ccc(Br)cc3)o2)cc1 | 0.0891 µM [falling, full curve] |  |
| O=C(COC(=O)C1CCN(/C=C/C(=O)C(F)(F)F)CC1)Nc1ccccc1 | 25.9 µM [rising, single point] |  |
| COc1ccc(S(=O)(=O)N2CCCC(C(=O)NCC3CCCO3)C2)cc1Cl (centres undefined) | 10 µM [falling, partial curve, poor fit] |  |
| COc1ccccc1-n1cn[nH]c1=S | 8.91 µM [falling, partial curve] |  |
| CN(C)N=Nc1nc2c(c(=O)n(C)c(=O)n2C)n1CC1CO1 (centres undefined) | 14.1 µM [rising, single point] |  |
| O=c1c(Cl)c(Cl)cnn1Cc1ccccc1Cl | 18.4 µM [falling, partial curve, poor fit] |  |
| COc1cc([N+](=O)[O-])ccc1NC(=O)Nc1cccnc1 | 0.501 µM [rising, full curve, poor fit] |  |
| CCCCCCC(=O)N(O)C1CC(=O)N(c2ccc(Br)cc2)C1=O (centres undefined) | 5.8 µM [falling, full curve, poor fit] |  |
| COC(=O)c1c(-c2ccccc2)noc1C | 35.5 µM [rising, single point] |  |

| SMILES | AC50 [1] | AC50 [2] |
| --- | --- | --- |
| COc1ccc(NC(=O)Nc2ccccc2)cc1S(=O)(=O)N1CCCCC1 | 35.5 µM [falling, partial curve, poor fit] |  |
| CC(C)CC(NC(=O)OC(C)(C)C)C(=O)NC(C(=O)N1CCCC1C(N)=O)C(C)C (stereo not drawn) (Boc-Leu-Val-Pro-NH2; configuration not given here) | 2.31 µM [rising, single point] |  |
| N/C(=N\OC(=O)c1ccc(Cl)cc1)c1nonc1N | 1.16 µM [rising, partial curve] |  |
| Cc1sc(NC(=O)C2CCCCC2C(=O)O)c(C(N)=O)c1-c1ccc(C(C)C)cc1 (centres undefined) | 2.24 µM [falling, full curve, poor fit] |  |
| COc1cc(/C=N/NC(=O)c2ccc(N)cc2)ccc1OC(=O)c1cccc(C)c1 | 12.6 µM [falling, partial curve, poor fit] |  |
| COc1ccc(OC)c(CNC(=O)CCCc2cn(C)c3ccccc23)c1 | 4.11 µM [falling, partial curve, poor fit] |  |
| Cc1cc(C)c2c(-n3cccc3)nn(CC#N)c2n1 | 1.12 µM [rising, full curve, poor fit] |  |
| Cc1ccc(N/N=C(\C#N)C(=O)c2ccsc2)cc1 | 14.1 µM [falling, single point] |  |
| O=C(/C=C/Nc1ccc(F)c(F)c1)c1cccs1 | 16.4 µM [falling, partial curve] |  |
| COc1ccc(C(=O)CSc2nnc(CN3CCCCC3)n2-c2ccc(F)cc2)cc1OC | 29.1 µM [falling, single point] |  |
| Cc1csc(C(C#N)C(=O)c2ccncc2)n1 (centres undefined) | 25.1 µM [falling, single point] |  |
| N#CC1=C(N)Oc2cc(Nc3ccccc3)ccc2C1c1ccncc1 (centres undefined) | 14.1 µM [falling, single point] |  |
| Nc1ncnc2nc(SCCN3CCCCC3)[nH]c12 | 6.51 µM [rising, single point] |  |
| Cc1cc(C(=O)Nc2ccccc2)oc1C | 22.4 µM [falling, single point] |  |
| COc1ccc(/C=C(\C#N)c2cc(OC)c(OC)cc2[N+](=O)[O-])cc1 | 5.62 µM [falling, single point] |  |
| N#CCCCSc1ncccc1-c1nc2ccccc2[nH]1 | 0.794 µM [falling, full curve] |  |
| CCOC(=O)/C(C#N)=C/c1c(OCC)n(CC)c2ccccc12 |  | 18.4 µM [rising, partial curve, poor fit] |
| CCOC(=O)C1=C(N)Oc2c(oc(CO)cc2=O)C1c1ccc(F)c(F)c1 (centres undefined) | 7.08 µM [falling, partial curve, poor fit] |  |
| COCCNC(=O)c1ccc(C)c(S(=O)(=O)Nc2ccc(C)cc2)c1 | 0.116 µM [rising, full curve] |  |
| COc1ccccc1OCCNc1cc(N2CCOCC2)ccc1[N+](=O)[O-] | 6.51 µM [rising, full curve, poor fit] |  |
| CCOC(=O)CSC1=C(C#N)C(c2sccc2C)CC(=O)N1 (centres undefined) | 6.31 µM [rising, partial curve] | 12.6 µM [falling, partial curve] |

Grouped by structure, those above with a thiophene ring, fused or not

| SMILES | AC50 [1] | AC50 [2] |
| --- | --- | --- |
| O=C(Nc1ccc2c(c1)OCO2)c1ccc(Cl)s1 | 23.1 µM [falling, single point] |  |
| Cc1sc(NC(=O)C2CCCCC2C(=O)O)c(C(N)=O)c1-c1ccc(C(C)C)cc1 (centres undefined) | 2.24 µM [falling, full curve, poor fit] |  |
| Cc1ccc(N/N=C(\C#N)C(=O)c2ccsc2)cc1 | 14.1 µM [falling, single point] |  |
| O=C(/C=C/Nc1ccc(F)c(F)c1)c1cccs1 | 16.4 µM [falling, partial curve] |  |
| CCOC(=O)CSC1=C(C#N)C(c2sccc2C)CC(=O)N1 (centres undefined) | 6.31 µM [rising, partial curve] | 12.6 µM [falling, partial curve] |
